Values from PubChem BioAssay AID1259275 (Sanger Institute, 2017)
This is an unselected part of 794 deposited reagents. Over the whole deposit, 13 (1.6%) got an active call. 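Calls mark knock-downs lethal by themselves, not drug synergy; drugs went in a day after transfection, with DMSO as vehicle.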 No viability above 1 is reported: the scale is capped. Further read-outs or replicates are left out here. The record does not give: the amount of reagent, the time to read-out.

- Aim: 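Kinase and colorectal cancer genes needed for cancer cell survival, with or without drugs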 (primary screen)
- System: COLO320HSR human colorectal cancer cells
- Reagent: siRNA pool against human genes
- Conditions: anchor drug added one day after transfection: BYL719 at 1 µM, cetuximab at 5 µg/ml or trametinib at 10 nM; DMSO as vehicle arm
- Read-out: 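Replicate-mean viability versus non-targeting pool control, robust z-score without drug, and per-drug synergy scores for BYL719 at 1 µM, cetuximab at 5 µg/ml and trametinib at 10 nM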
- Reading the numbers: robust z-score, siRNA alone: higher = more viable cells; strongly negative means essential; viability, knock-down alone (DMSO): higher = more viable cells; synergy score with BYL719: higher = stronger combined killing with drug
- Active means: 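Essential means the knock-down by itself gives a robust z-score lower than -3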
- Calls: active = essential (siRNA alone); inactive = no change (siRNA alone)

gene | robust z-score, siRNA alone | viability, knock-down alone (DMSO) (fraction of control) | synergy score with BYL719 | Call
DYRK2 | 0.279 | 0.96 | -0.24 | inactive
TEC | -0.0346 | 0.931 | -0.142 | inactive
MAP2K7 | -1.79 | 0.773 | -0.0125 | inactive
ITPKA | 0.726 | 1 | 0.0229 | inactive
STK38L | -0.121 | 0.923 | -0.0585 | inactive
LRRK1 | 0.358 | 0.967 | -0.13 | inactive
PAK4 | -0.0422 | 0.931 | -0.0268 | inactive
ITPKC | 0.287 | 0.96 | 0.0629 | inactive
PIP4K2C | 0.429 | 0.973 | 0.0127 | inactive
SGK3 | -0.153 | 0.921 | -0.0757 | inactive
UCKL1 | -0.57 | 0.883 | -0.108 | inactive
BMP2K | -0.792 | 0.863 | -0.153 | inactive
DUSP21 | 0.726 | 1 | -0.0549 | inactive
ANKK1 | 0.159 | 0.949 | -0.0631 | inactive
KMT2B | 0.0812 | 0.942 | -0.0443 | inactive

As entered above:
Result of PAK4 under “viability, knock-down alone (DMSO) (fraction of control)”: 0.931
UCKL1, robust z-score, siRNA alone: -0.57
